Results from US20050090433A1 (priority 2002, published 2005).
At least one structure is not confirmed: it was looked up by name or label, or the drawing left a doubt.

Columns and labels:
[1] = test system: Gram-positive isolates, including MRSA; test: Dalbavancin MIC, Gram-positive isolates of SSTI trial; assay type: cell-based
[2] = Multimer to monomer population by electrospray ion mass spectroscopy; assay type: physicochemical; settings: dalbavancin 0.1 mg/ml in 8:2 water:isopropanol; teicoplanin 50 and 100 μg/mL in water

For `CN[C@H]1C(=O)N[C@@H]2Cc3ccc(cc3)Oc3cc4cc(c3O[C@@H]3O[C@H](C(=O)O)[C@@H](O)[C@H](O)[C@H]3NC(=O)CCCCCCCCC(C)C)Oc3ccc(cc3Cl)[C@@H](O)[C@@H]3NC(=O)[C@H](NC(=O)[C@@H]4NC(=O)[C@@H](NC2=O)c2cc(cc(O)c2Cl)Oc2cc1ccc2O)c1ccc(O)c(c1)-c1c(O[C@H]2O[C@H](CO)[C@@H](O)[C@H](O)[C@@H]2O)cc(O)cc1[C@@H](C(=O)NCCCN(C)C)NC3=O` [Dalbavancin], the “Change in dalbavancin MIC for isolates that persisted” value [1] was “no change” and the “Multimers in solution (ESI-MS)” value [2] was “presence of dalbavancin multimers”.
